From PubChem BioAssay AID328 (DTP/NCI, 2004) come the findings set out here.

The structures appear in SMILES notation. The list does not hold the whole screen: it is rich in T/C values a quarter to a half above the control, in often repeated tests (any T/C) and in doses without a T/C. Further doses and runs are listed elsewhere. T/C gives the treated animals as a percentage of the vehicle group. Some doses have a count of surviving animals in place of a T/C: the source holds a T/C of zero for them, seemingly a mark for toxic or unscored doses. Some doses without a T/C left all or most animals alive at the check, yet need not have been tolerated: survival well below the control is almost never listed, so the zero probably covers shortened survival too. Survivors were counted at the toxicity check, usually on the fifth day, unless a day is given; later deaths do not show. Schedule codes are those of the source, read here as Q, the interval in days (D) or hours (H), X, the number of doses. For survival time, this PubChem deposit counts one and a half times the control or more as active, and values a quarter to a half above the control carry no call in these data; other NCI protocols may use other cut-offs. Some entries hold several experiments; the results are listed from low to high. Some T/C values carry the count of animals alive at the toxicity check (mostly the fifth day); where none is given, no animal had died by that day.

This test relates to BDF1 mice, P388 leukemia ip, median survival T/C. Nature of the test: NCI In Vivo Anticancer Drug Screen. Data for tumor model P388 Leukemia (intraperitoneal) in B6D2F1 (BDF1) mice. To be noted: T/C endpoint: median survival time, higher T/C = longer survival. In outline: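 Antitumour effect was judged in vivo: survival in drug-treated mice, normalised to that of vehicle-dosed controls, gives the reported T/C.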

Setting [1] is: dose: 200.0 mg/kg/injection, schedule: Q01DX009 (ip), vehicle: saline with Tween-80.
[2] abbreviates: dose: 100.0 mg/kg/injection, schedule: Q01DX009 (ip), vehicle: saline with Tween-80.
Where [3] appears, read: dose: 50.0 mg/kg/injection, schedule: Q01DX009 (ip), vehicle: saline.
[4] abbreviates: dose: 80.0 mg/kg/injection, schedule: Q01DX009 (ip), vehicle: saline.
[5] abbreviates: dose: 120.0 mg/kg/injection, schedule: Q01DX009 (ip), vehicle: saline.

Consider `CO[C@H]1Nc2c(ccc(C)c2O)C(=O)N2C=C(/C=C/C(N)=O)C[C@@H]12`, for which the T/C runs as follows: (dose: 0.03 mg/kg/injection, schedule: Q01DX009 (ip), vehicle: saline with Tween-80) 131 % of control [5 of 6 alive]; (dose: 0.06 mg/kg/injection, schedule: Q01DX009 (ip), vehicle: saline with Tween-80) 131 % of control; (dose: 0.12 mg/kg/injection, schedule: Q01DX009 (ip), vehicle: saline) 141 % of control [5 of 6 alive]; (dose: 0.18 mg/kg/injection, schedule: Q01DX009 (ip), vehicle: saline) 145 % of control. The survivor count (dose: 0.12 mg/kg/injection, schedule: Q01DX009 (ip), vehicle: Klucel (hydroxypropylcellulose) (HPC)) is 2 of 6; the survivor count (dose: 0.5 mg/kg/injection, schedule: Q01DX010 (ip), vehicle: saline) is 6 of 6; the survivor count (dose: 1.0 mg/kg/injection, schedule: Q01DX010 (ip), vehicle: saline) is reported as 6 of 6; the survivor count (dose: 2.0 mg/kg/injection, schedule: Q01DX010 (ip), vehicle: saline) was 6 of 6; the survivor count (dose: 700.0 micrograms/kg/injection, schedule: Q04DX003 (ip), vehicle: saline + alcohol) is recorded as 6 of 8; the survivor count (dose: 1000.0 micrograms/kg/injection, schedule: Q04DX003 (ip), vehicle: saline + alcohol) is 2 of 8.
Consider `CC(=O)NC1C(S[As](C)C)OC(COC(C)=O)C(OC(C)=O)C1OC(C)=O` (centres undefined), for which the T/C runs as follows: (dose: 50.0 mg/kg/injection, schedule: Q01DX009 (ip), vehicle: saline with Tween-80) 136 % of control; under setting [1], 127 % of control [5 of 6 alive].
Turning to `CC(=O)N1C(=O)N(Cl)C(=O)C1(c1ccc(Cl)cc1)c1ccc(Cl)cc1`, the T/C is 127 % of control under setting [2] and 127 % of control [5 of 6 alive] (dose: 160.0 mg/kg/injection, schedule: Q01DX009 (ip), vehicle: saline with Tween-80). Further, the survivor count (dose: 400.0 mg/kg/injection, schedule: Q01DX009 (ip), vehicle: saline with Tween-80) is given as 4 of 6.
Consider `CC([NH-])C(=O)O.CC([NH-])C(=O)O.[Ni+2]` (centres undefined), for which the survivor count (dose: 25.0 mg/kg/injection, schedule: Q01DX009 (ip), vehicle: saline) is listed as 5 of 6; the survivor count (dose: 32.0 mg/kg/injection, schedule: Q01DX009 (ip), vehicle: saline) is 2 of 6; the survivor count (dose: 42.0 mg/kg/injection, schedule: Q01DX009 (ip), vehicle: saline) is reported as 0 of 6; the survivor count (dose: 50.0 mg/kg/injection, schedule: Q04DX003 (ip), vehicle: saline) is given as 4 of 6.
With `CCOC(=O)CN1C=C(C(=O)c2cc3ccccc3n2S(=O)(=O)c2ccccc2)CCC1`, the T/C (dose: 1.0 mg/kg/injection, schedule: Q01DX009 (ip), vehicle: saline) was 133 % of control [5 of 6 alive].
With `NC(N)=N/N=C/C(Cl)Cl`, under setting [3], the survivor count was 6 of 6.
Turning to `O=C(O)/C=C/c1cc2c(cc1[N+](=O)[O-])OCO2`, where the note is “dose: 400.0 mg/kg/injection, schedule: Q01DX009 (ip), vehicle: Klucel (hydroxypropylcellulose) (HPC)”, the survivor count is given as 6 of 6.
Regarding `C[N+](C)(C)Cc1ccccc1C[N+](C)(C)C`, the survivor count (dose: 200.0 mg/kg/injection, schedule: Q01DX009 (ip), vehicle: saline) is 3 of 6.
As to `O=C(NCCCl)NC1c2ccccc2CCc2ccccc21`, for the setting “dose: 400.0 mg/kg/injection, schedule: Q04DX003 (ip), vehicle: Klucel (hydroxypropylcellulose) (HPC)”, the survivor count is 6 of 6.
Regarding `C=C(C)C12OC3(c4ccccc4)OC1C1C4OC4(CO)C(O)C4(O)C(=O)C(C)=CC4C1(O3)C(C)C2O` (centres undefined), the survivor count (dose: 100.0 micrograms/kg/injection, schedule: Q01DX009 (ip), vehicle: saline + alcohol) was 6 of 6. The T/C (dose: 400.0 micrograms/kg/injection, schedule: Q01DX009 (ip), vehicle: saline + alcohol) is 131 % of control.
Turning to `CCOC(CN1CCN(CC(C)C(=O)c2ccccc2)CC1)c1ccccc1` (centres undefined), the survivor count under setting [1] is given as 0 of 6.
In the case of `C=C(CC(N)=O)C(=O)O` (tested in a mixture with another compound), the T/C (dose: 600.0 mg/kg/injection, schedule: Q01DX003 (ip), vehicle: saline) is 131 % of control.
With `COc1ccc(CN(CCOC(=O)c2ccc(OC)cc2)CCN(CCOC(=O)c2ccc(OC)cc2)Cc2ccc(OC)cc2)cc1`, the T/C is 90 % of control (dose: 50.0 mg/kg/injection, schedule: Q04DX003 (ip), vehicle: water, evaluated on day 20); 93 and 100 % of control (dose: 50.0 mg/kg/injection, schedule: Q04DX003 (ip), vehicle: water, evaluated on day 30); 95 % of control (dose: 50.0 mg/kg/injection, schedule: Q04DX003 (ip), vehicle: water, evaluated on day 31); 127 % of control (dose: 100.0 mg/kg/injection, schedule: Q01DX009 (ip), vehicle: water); 86 % of control (dose: 100.0 mg/kg/injection, schedule: Q04DX003 (ip), vehicle: water, evaluated on day 20); 100 and 101 % of control (dose: 100.0 mg/kg/injection, schedule: Q04DX003 (ip), vehicle: water, evaluated on day 30). In addition, the T/C by setting is: (dose: 100.0 mg/kg/injection, schedule: Q04DX003 (ip), vehicle: water, evaluated on day 31) 128 % of control; (dose: 200.0 mg/kg/injection, schedule: Q04DX003 (ip), vehicle: water, evaluated on day 20) 108 % of control [5 of 6 alive]; (dose: 200.0 mg/kg/injection, schedule: Q04DX003 (ip), vehicle: water, evaluated on day 30) 97 and 105 % of control; (dose: 200.0 mg/kg/injection, schedule: Q04DX003 (ip), vehicle: water, evaluated on day 31) 266 % of control; (dose: 400.0 mg/kg/injection, schedule: Q04DX003 (ip), vehicle: water, evaluated on day 20) 88 % of control; (dose: 400.0 mg/kg/injection, schedule: Q04DX003 (ip), vehicle: water, evaluated on day 30) 97 and 98 % of control. For the same compound, the T/C (dose: 400.0 mg/kg/injection, schedule: Q04DX003 (ip), vehicle: water, evaluated on day 31) was 95 % of control.
As to `O=[N+]([O-])c1cccc(C[n+]2ccccc2C2OCCO2)c1`, the survivor count reads like this: under setting [3], 2 of 6; under setting [4], 0 of 6; (dose: 105.0 mg/kg/injection, schedule: Q04DX003 (ip), vehicle: saline) 0 of 6; under setting [5], 0 of 6.
Turning to `COc1cc(N2CCOCC2)ccc1[N+](=O)[O-]`, the survivor count (dose: 400.0 mg/kg/injection, schedule: Q01DX009 (ip), vehicle: saline) is listed as 0 of 6.
As to `COc1cc2c[n+](C)c3c4cc5c(cc4ccc3c2cc1OC)OCO5` (tested in a mixture with another compound), the T/C was 133 % of control (dose: 2.5 mg/kg/injection, schedule: Q01DX009 (ip), vehicle: water); 144 % of control (dose: 5.0 mg/kg/injection, schedule: Q01DX009 (ip), vehicle: water); 139 % of control (dose: 40.0 mg/kg/injection, schedule: Q01DX009 (ip), vehicle: saline). The survivor count is, setting by setting: under setting [4], 8 of 8; (dose: 80.0 mg/kg/injection, schedule: Q01DX009 (ip), vehicle: water) 4 of 8; (dose: 100.0 mg/kg/injection, schedule: Q01DX009 (ip), vehicle: saline) 5 of 6; under setting [5], 1 of 6; (dose: 240.0 mg/kg/injection, schedule: Q01DX009 (ip), vehicle: saline) 0 of 6.
Regarding `C[N+]1(C)N=C([O-])N(c2ccccc2[N+](=O)[O-])C1=O`, the survivor count by setting is: under setting [2], 5 of 6; under setting [1], 5 of 6.
As to `CCC(=O)NC(C(=O)NC(C(=O)NC(CC(C)C)C(O)CC(=O)NC(C)C(=O)NC(CC(C)C)C(O)CC(=O)O)C(C)C)C(C)C` (centres undefined), the survivor count under setting [1] is given as 3 of 6.
As to `CN(C)CCOc1cccc(OCCN(C)C)n1`, the survivor count under setting [2] was 1 of 6 and the survivor count (dose: 100.0 mg/kg/injection, schedule: Q04DX003 (ip), vehicle: saline with Tween-80) is on record as 5 of 6.
